The whole screen tested about 580,000 compounds, of which about 6,100 (1.1%) were called active. The shares of active, inactive and inconclusive entries below differ from those in the screen. Calls follow the shape of the dose curve; as a rule, active = well fitted inhibition curve with a large enough effect; inconclusive = small, poorly fitted or top-dose-only effect, or another doubt; inactive = no such curve, though single readings can be large or run the other way. Potencies of inconclusive entries are doubtful fits and often do not repeat.
What follows are molecules tested against Polyunsaturated fatty acid lipoxygenase ALOX12 (Homo sapiens) (UniProt P18054) (assay: Primary qHTS assay for inhibitors of human arachidonate 12S-lipoxygenase (ALOX12): Round 2). Details: purified 12hLO, xylenol orange hydroperoxide absorbance; activity change, negative = inhibition: at 108 µM (top of the series) unless noted.
Summary of the method: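 Hydroperoxide product was detected by ferrous iron/xylenol orange as the 573 to 405 nm absorbance ratio. Arachidonic acid at 40 uM (final) was turned over for 30 min at room temperature by 150 nM human 12hLO, pH 7.0 Hepes buffer, after 15 min compound preincubation.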
% is scaled to controls: 0 for no effect and ±100 for the full control effect; potency is read from the fitted curve at half-maximal effect.

Chains of the proteins cited; added tags and fusions are not shown.
UniProt P18054, whole entry, looked up: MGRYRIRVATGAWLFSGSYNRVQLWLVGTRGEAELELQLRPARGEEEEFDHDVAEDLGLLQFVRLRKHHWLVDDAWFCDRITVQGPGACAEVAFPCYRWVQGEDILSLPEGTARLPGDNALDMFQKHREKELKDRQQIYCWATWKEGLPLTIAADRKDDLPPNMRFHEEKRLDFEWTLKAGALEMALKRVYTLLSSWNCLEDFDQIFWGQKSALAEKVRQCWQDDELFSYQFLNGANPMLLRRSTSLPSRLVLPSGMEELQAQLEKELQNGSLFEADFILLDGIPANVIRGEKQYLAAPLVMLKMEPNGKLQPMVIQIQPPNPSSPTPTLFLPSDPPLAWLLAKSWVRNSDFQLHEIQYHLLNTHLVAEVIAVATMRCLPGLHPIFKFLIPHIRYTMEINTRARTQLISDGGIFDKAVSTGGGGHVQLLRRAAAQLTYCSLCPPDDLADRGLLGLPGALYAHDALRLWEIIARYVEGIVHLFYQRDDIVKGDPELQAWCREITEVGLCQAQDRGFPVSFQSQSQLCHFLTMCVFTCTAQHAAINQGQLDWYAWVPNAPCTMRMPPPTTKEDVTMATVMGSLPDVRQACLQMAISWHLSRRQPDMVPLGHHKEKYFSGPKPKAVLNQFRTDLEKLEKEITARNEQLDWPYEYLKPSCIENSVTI

| SMILES | Potency | activity change, negative = inhibition |
| --- | --- | --- |
| CC(=O)NC(c1ccc(N(C)C)cc1)c1cc(Cl)c2cccnc2c1O (stereo unspecified) | inconclusive: 39.8 µM [inhibitor, partial curve, poor fit] | – |
| O=C(NCCC1CCCCN1S(=O)(=O)c1ccccc1)C(=O)NC1CCCC1 (stereo unspecified) | inactive | – |
| CCN(CC)C1(Cc2cc(COc3ccccc3)on2)COC1 | inactive | – |
| CCc1ccc(NC(=O)C2=C(C)NC(Nc3nc4ccccc4o3)=NC2c2ccccc2)cc1 (stereo unspecified) | inactive | – |
| O=C(NCCc1ccccc1)C(=O)NN=C1CCCC1 | inconclusive: 39.8 µM [inhibitor, single point] | – |
| C#CCNC(=O)C1=C[C@H](c2ccc(C(F)(F)F)cc2)C[C@H](OCc2ccc(CO)cc2)O1 | inconclusive: 89.1 µM [inhibitor, partial curve, poor fit] | – |
| COc1cccc(CN2CCCC(c3nc(-c4ccncc4)ncc3-c3ccccc3C)C2)c1O (stereo unspecified) | inactive | – |
| O=C(O)/C=C\c1ccccc1Oc1cccc(Cl)c1 | inconclusive: 3.98 µM [inhibitor, full curve, poor fit] | – |
| COc1cccc(-c2[nH]nc3c2C(c2ccccc2F)C(C#N)=C(N)O3)c1 (stereo unspecified) | inconclusive: 28.2 µM [inhibitor, single point] | – |
| CC1=CC(C)(C)n2c(O)c(N=N)c3cc(C)cc1c32 | inactive | – |
| N#Cc1c(N)nc2c3c(sc(=N)c2c1N)NC(=O)CC3c1ccccc1 (stereo unspecified) | inactive | – |
| COc1ccc(CCNC(=O)CN(c2ccc(Br)cc2)S(C)(=O)=O)cc1OC | inactive | – |
| COc1ccccc1-c1nnc(SCC(=O)Nc2c(Cl)cccc2Cl)o1 | inactive | – |
| C1=C(CN2CCOCC2)COc2c1cccc2OC[C@@H]1CNCCO1 | inconclusive: 31.6 µM [inhibitor, partial curve, poor fit] | – |
| Cc1ccc(OCc2nc3ccccc3n2CC(C)C)cc1 | inconclusive: 44.7 µM [inhibitor, partial curve, poor fit] | – |
| COc1cc(NC(=O)c2ccc(S(=O)(=O)N(C)c3ccccc3OC)cc2)cc(OC)c1 | inactive | – |
| Cc1ccc(-n2c(C3CCN(C(=O)CCc4ccccc4)CC3)n[nH]c2=O)cc1 | inconclusive: 20 µM [inhibitor, full curve] | – |
| CCc1nc2ccc(C(=O)NCCC(C)C)cn2c1N(CC)CCOC | inactive | – |
| CC(=O)Nc1c2c(nn1-c1ccc(C)cc1C)CSC2 | inactive | – |
| N#CCC(=O)N1CC2(CC(c3cccc(NC(=O)COc4ccc(Cl)cc4)c3)=NO2)C[C@@H]1C(N)=O (stereo partly specified) | inconclusive: 44.7 µM [inhibitor, partial curve, poor fit] | – |
| COc1ccccc1N1CCN(C(=O)c2nn(-c3ccccc3OC)c(=O)c3ccccc23)CC1 | inconclusive: 112 µM [inhibitor, single point] | – |
| O=C(NNC(=S)NC(=O)c1cn(-c2ccccc2)nc1-c1ccccc1)c1ccncc1 | inconclusive: 5.62 µM [inhibitor, full curve, poor fit] | – |
| CNCc1cn(C[C@H]2O[C@@H](CC(=O)N3CCC[C@@H]3COC)[C@H](O)[C@@H]2O)nn1 | inactive | – |
| Cn1c(=O)c2c(ncn2CCC(=O)Nc2ccc(Cl)cc2)n(C)c1=O | inactive | – |

Whole records as entered above:
O=C(NCCC1CCCCN1S(=O)(=O)c1ccccc1)C(=O)NC1CCCC1 (stereo unspecified) as listed: Potency: inactive
COc1cc(NC(=O)c2ccc(S(=O)(=O)N(C)c3ccccc3OC)cc2)cc(OC)c1 as listed: Potency: inactive
N#Cc1c(N)nc2c3c(sc(=N)c2c1N)NC(=O)CC3c1ccccc1 (stereo unspecified) as listed: Potency: inactive

The results go on.

| SMILES | Potency | activity change, negative = inhibition |
| --- | --- | --- |
| CCOc1ccccc1CNC(=O)Nc1cn(CC(C)C)c(=O)c2ccccc12 | inconclusive: 141 µM [inhibitor, single point] | – |
| Cc1cnc2c(S(=O)(=O)NCCN3CCOCC3)cccc2c1 | – | inconclusive: -32.1% [inhibitor] |
| CC(C)(C)c1ccc(C(=O)NC(=S)N2CCOCC2)cc1 | inconclusive: 39.8 µM [inhibitor, partial curve] | – |
| CCN(CC)S(=O)(=O)c1ccc(SCC(=O)c2c(N)n(C3CC3)c(=O)[nH]c2=O)nc1 | inconclusive: 89.1 µM [inhibitor, partial curve, poor fit] | – |
| c1ccc(CN2CCC(N3CC(OCC4CC4)C34CCCCC4)CC2)nc1 (stereo unspecified) | inactive | – |
| c1ccc(OCc2nc(-c3ccncc3)no2)cc1 | inactive | – |
| OC(CNCCc1ccc(C(F)(F)F)cc1)COC(c1ccccc1)c1ccccc1 (stereo unspecified) | active: 14.1 µM | – |
| COc1ccc(C(O)(CCC(C)C)C(CN2CCOCC2)c2ccc(Cl)cc2)cc1 (stereo unspecified) | inconclusive: 100 µM [inhibitor, partial curve, poor fit] | – |
| Cc1ccc2oc(-c3ccc(NC(=O)CC(C)C)cc3)nc2c1 | inactive | – |
| CC1(C(=O)NCc2ccc(Cl)cc2)CCN1C(=O)c1cccc(F)c1 (stereo unspecified) | inactive | – |
| CCOc1ccccc1C(=O)NCCc1noc(C2CC2)n1 | inactive | – |
| COc1ccccc1C1c2ccc3ccccc3c2Oc2ncn(CCN(C)C)c(=N)c21 (stereo unspecified) | inactive | – |
| CN1CC(=O)N(C2CCNC2)Cc2c(NC3CCCCCC3)ncnc21 (stereo unspecified) | inconclusive: 0.452 µM [inhibitor, single point] | – |
| NC(=S)N/N=C/c1ccccc1OC(=O)c1cc2ccccc2oc1=O | inactive | – |
| CC(C)CNC(=O)N1CCCCCCNC(=O)[C@@H]2CCC[C@@H]21 | inactive | – |
| COc1ccc2cc(S(=O)(=O)N3CCN(C)CC3)ccc2c1 | inconclusive: 44.7 µM [inhibitor, partial curve, poor fit] | – |
| Cc1ccc(NC(=O)C(=O)c2c(C)[nH]c3ccccc23)cc1Cl | inconclusive: 20 µM [inhibitor, partial curve, poor fit] | – |
| Cc1ccc(/C=C2\OC(=O)c3ccccc32)cc1 | inactive | – |
| Cc1cc(O)c(C=Nc2ccc(N3CCOCC3)cc2)c(C)c1Cl | inconclusive: 22.4 µM [inhibitor, full curve] | – |
| COCC(=O)NC[C@H]1O[C@@H](CO)[C@@H](O)[C@H]1N1CCN(c2ccccc2OC)CC1 | inactive | – |
| CCOC(=O)c1c(C)[nH]c(N=Nc2ccccc2)c1C | inconclusive: 39.8 µM [inhibitor, partial curve, poor fit] | – |
| O=C(NCCN1CCOCC1)c1ccc2c(c1)N(Cc1ccccc1F)C(=O)c1ccccc1S2 | inconclusive: 35.5 µM [inhibitor, partial curve, poor fit] | – |
| COc1ccc(Cc2nc3ccccc3n2C)cc1 | inactive | – |
| O=S(Cc1cccc(C(F)(F)F)c1)Cc1cccc2ccccc12 (stereo unspecified) | inactive | – |

| SMILES | Potency | activity change, negative = inhibition |
| --- | --- | --- |
| Cc1cn2nc(C(=O)NCc3ccccc3F)cc2c(N2CCSCC2)n1 | inconclusive: 7.94 µM [inhibitor, partial curve] | – |
| COc1ccc(OC)c(C2C(C(=O)Nc3ccccc3)=C(C)Nc3nc4ccccc4n32)c1 (stereo unspecified) | inactive | – |
| CCc1ccc(NC(=O)Cn2cnc3sc(C)c(S(=O)(=O)N4CCC(C)CC4)c3c2=O)cc1 | inconclusive: 0.224 µM [inhibitor, full curve, poor fit] | – |
| CSc1ccc(C(C2=C(O)CC(C)(C)CC2=O)C2C(=O)CC(C)(C)CC2=O)cc1 (stereo unspecified) | inconclusive: 14.1 µM [inhibitor, partial curve, poor fit] | – |
| CC1CC(C)CN(S(=O)(=O)c2ccc(Oc3ccc([N+](=O)[O-])cc3)cc2)C1 (stereo unspecified) | inactive | – |
| O=C(C1COc2ccccc2O1)N1CCN(c2ccc([N+](=O)[O-])cc2)CC1 (stereo unspecified) | inconclusive: 89.1 µM [inhibitor, partial curve, poor fit] | – |
| CC(C)CN(CC(C)C)S(=O)(=O)N1CCC(C(=O)NCc2cccnc2)CC1 | inactive | – |
| COC(=O)COc1coc(CN2CCN(c3ccccc3)CC2)cc1=O | inactive | – |
| COn1c(SC2CCCCC2)nc2ccccc2c1=O | inconclusive: 39.8 µM [inhibitor, partial curve, poor fit] | – |
| CCNC(=O)N1CC(Oc2ccccc2-c2nc(-c3cnccn3)no2)C1 | inconclusive: 70.8 µM [inhibitor, partial curve] | – |
| Cc1c(N=NC2=C(O)CC(C)(C)CC2=O)c(=O)n(-c2ccccc2)n1C | inactive | – |
| COc1ccc(-c2[nH]ncc2CN2CCC(N3CCSCC3)CC2)c(F)c1 | inactive | – |
| CCOC(=O)/C=C1\CC(C(=O)OCC)Oc2c(OC)cccc21 (stereo unspecified) | inconclusive: 50.1 µM [inhibitor, partial curve, poor fit] | – |
| COC(=O)C1=C(C)NC(=O)CC1C(=O)Nc1ccc(Cl)cc1 (stereo unspecified) | inconclusive: 39.8 µM [inhibitor, partial curve] | – |
| Cc1ccc([C@H]2C[C@@H](O)[C@H](n3cc(COC(=O)c4ccccc4)nn3)CN2Cc2cccs2)cc1 | inconclusive: 112 µM [inhibitor, single point] | – |
| COc1ccccc1CCn1cnc(-c2ccc(Br)cc2)c1CC(C)C | inconclusive: 44.7 µM [inhibitor, partial curve, poor fit] | – |
| COc1cccc(N2CCN(C(=O)C3CCC(CNS(=O)(=O)c4ccc(Br)s4)CC3)CC2)c1 (stereo unspecified) | inactive | – |
| COc1ccc(CNC(=O)CCNC(=O)N2CCn3c2nc2ccccc23)cc1 | inconclusive: 44.7 µM [inhibitor, partial curve] | – |
| O=c1cc(-c2ccccc2)oc2cc(O)cc(O)c12 | inconclusive: 0.863 µM [inhibitor, full curve] | – |
| c1csc(CNc2ncnc3ccc(-c4ccc5c(c4)OCO5)cc23)c1 | inconclusive: 5.01 µM [inhibitor, full curve, poor fit] | – |
| COc1ccc(/C=N/n2c(-c3cccs3)n[nH]c2=S)cc1 | inconclusive: 35.5 µM [inhibitor, partial curve, poor fit] | – |
| CCc1c(C)cc(C(=O)N[C@@H]2[C@@H](Cc3ccccc3)[C@H]3OCC[C@@H]23)c(=O)n1C | inconclusive: 11.2 µM [inhibitor, partial curve, poor fit] | – |
| CCOc1ccc(-n2c(C)cc(C(=O)CCl)c2C)cc1 | inconclusive: 100 µM [inhibitor, partial curve, poor fit] | – |
